By AC50 is commonly meant the midpoint of the concentration-response curve, whichever way the signal moves.

Structures are written as SMILES. Some of the results follow. Shown are side measurements of this screen, not its main read-out; they come without a call. The list favours compounds with an active or inconclusive main result. Potencies come from curve fits of mixed quality, noted in brackets.

The assay is described as follows: qHTS Assay to Find Inhibitors of Chronic Active B-Cell Receptor Signaling. As to conditions: ABC-DLBCL IkBa-CBG/CBR reporter, luminescence ratio (green luciferase fused to IkBa over red control in TMD8 lymphoma cells), 4 h. An outline of the steps:
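Concentration-response series (up to 46 uM) were applied to TMD8 dual-reporter cells for 4 h at 37C with doxycycline. Green/red ratio, after filter-overlap correction, defined %Activity; red signal alone was normalised to basal cells and zero luminescence.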

Setting [1] is: measured here: CBR red luminescence, cell number.
[2] abbreviates: measured here: IkBa-CBG green luminescence.

As for `CC(C)CC(=O)NC(=S)Nc1nc(-c2ccc(Cl)cc2)cs1`, the AC50 under setting [1] was 20.6 µM [rising, single point].
In the case of `CC(C)Oc1ccc(Br)cc1/C=N\NC(N)=S`, the AC50 under setting [1] was 18.4 µM [falling, partial curve, poor fit].
Consider `Cc1ccc(Cn2c(C(=O)O)cc3sccc32)cc1`, for which, under setting [1], the AC50 was 14.6 µM [falling, partial curve, poor fit].
For the molecule `COc1ccc(NC(=S)N2CCCC2c2ccc(OC)c(OC)c2)cc1` (stereo not drawn), the AC50 under setting [1] is 0.708 µM [rising, full curve, poor fit].
`Fc1ccc(C2CCCCN2Cc2nc(CC3CC3)no2)cc1` (stereo not drawn): under setting [1], the AC50 was 3.98 µM [rising, full curve, poor fit].
Turning to `O=C(/C=C/c1ccccc1)c1ccc2c(c1)OCCCCO2`, the AC50 under setting [1] was 28.2 µM [falling, single point].
The same measure, in the same setting: for `O=c1cc(O)nc(-c2ccccc2)s1` the value was 14.1 µM [falling, single point].
As to `Cc1[nH]c2ccc(CNS(=O)(=O)c3ccc(S(=O)(=O)N4CCOCC4)cc3)cc2c1C`, the AC50 under setting [1] was 5.17 µM [rising, full curve, poor fit].
For the molecule `Cc1ccc(NC(=S)c2nc3ccccc3[nH]2)c(C)c1`, the AC50 under setting [2] is 18.4 µM [rising, partial curve, poor fit].
As to `O=[N+]([O-])c1ncccc1OCc1ccc(-c2ccccc2)cc1`, the AC50 under setting [1] is 2 µM [rising, full curve, poor fit].
Consider `COc1ccc(C(C#N)(CC(=O)O)c2cnccn2)cc1OC` (stereo not drawn), for which the half-maximal activity concentration (AC50) under setting [1] is 4.11 µM [rising, full curve, poor fit].
For `Cc1ccoc1C(=O)Nc1ccc(CC(=O)O)cc1`, the AC50 under setting [1] is 2.06 µM [rising, partial curve].
With `CCOC(=O)/C=C1\SCC(=O)N1CC(=O)c1ccc[nH]1`, the AC50 under setting [1] was 1.12 µM [rising, partial curve, poor fit].
Same read-out and setting: for `NS(=O)(=O)c1ccc(NC(=O)CCC(=O)c2ccc(Cl)s2)cc1` the value was 8.91 µM [rising, partial curve, poor fit].
On to `Cc1cc(C)nc(NS(=O)(=O)c2ccc(NC(=O)c3cc(=O)c4ccccc4o3)cc2)n1`, for which the AC50 by setting is: under setting [1], 10 µM [rising, partial curve]; under setting [2], 14.1 µM [falling, partial curve, poor fit].
Consider `Oc1ccccc1C1NN=C(c2ccccc2)S1` (stereo not drawn), for which the AC50 under setting [1] is 3.55 µM [falling, full curve].
Same read-out and setting: under `COc1cccc(C(=O)Nc2ccc3c(c2)n(C)c(=O)n3C)c1` stands 25.1 µM [falling, partial curve]; under `COc1ccc(C(=O)[C@H]2[C@H]3C(=O)N(c4ccccc4)C(=O)[C@H]3C3C=CC=NN32)cc1` (stereo partly drawn), 11.2 µM [falling, partial curve, poor fit]; under `CCOC(=O)c1c(N)sc(C(=O)Nc2ccccc2F)c1C`, 35.5 µM [falling, single point].
On to `COc1ccc(CCN2C(=O)CSC2=S)cc1OC`, for which the AC50 under setting [2] is 35.5 µM [falling, single point].
For the molecule `O=C(O)/C=C/C(=O)NCc1ccccc1`, the AC50 under setting [1] is 3.66 µM [rising, full curve].
Still for that read-out and setting: under `COc1ccc(-c2cc3ccccc3nc2N)cc1OC` stands 22.4 µM [falling, single point]; under `O=C(N/N=C1\C2CN3CCN(C2)CC1(c1ccccc1)C3)c1ccc(F)cc1`, 25.9 µM [falling, partial curve].
On the same count and under the same terms, for `O=C(C[n+]1ccc(C(=O)NCCCO)cc1)c1cccc(Br)c1` the value was 3.16 µM [rising, full curve, poor fit].
Take `CSc1nc2c(c(=O)[nH]1)C(c1ccccc1Cl)CC(=O)N2` (stereo not drawn): the AC50 under setting [1] is 3.55 µM [rising, partial curve, poor fit].
With `OCC1(CCCc2ccccc2)CCN(Cc2cnc(N3CCOCC3)s2)CC1`, the AC50 under setting [1] is 5.62 µM [rising, single point].
Regarding `CC(=O)Nc1ccc(S(=O)(=O)N2CCCN(S(=O)(=O)c3ccc(NC(C)=O)cc3)CC2)cc1`, the AC50 under setting [1] was 2.06 µM [rising, full curve, poor fit].
With `CCOCCCNC(=O)C(NC(=O)c1ccc(NC(C)=O)cc1)c1ccc(OC)cc1` (stereo not drawn), the AC50 under setting [1] was 29.1 µM [rising, single point].
`Cc1ccc(CS(=O)(=O)c2cn(CC(=O)N3CCOCC3)c3ccccc23)cc1`: the AC50 under setting [1] was 3.98 µM [falling, single point].
`COc1cc(C(=O)Nc2sc3c(c2C(=O)O)CCC(C)C3)cc(OC)c1OC` (stereo not drawn): under setting [1], the AC50 was 5.62 µM [falling, partial curve].
Turning to `O=C(C1=C[C@@H](C2CCCCC2)C[C@@H](OCCCCO)O1)N1CCN(Cc2ccccc2)CC1`, under setting [1], the AC50 was 35.5 µM [falling, single point].
In the case of `Cn1c(=O)c2c(nc(CN3CCC(C(N)=O)CC3)n2Cc2ccccc2Cl)n(C)c1=O`, the AC50 under setting [1] was 15.8 µM [rising, partial curve].
As for `O=C1CC(N2CCN(C3CC(=O)N(CCc4ccccc4)C3=O)CC2)C(=O)N1CCc1ccccc1` (stereo not drawn), the AC50 under setting [1] is 25.9 µM [rising, single point].
For `Cc1ccc(NC(=O)c2ccc([N+](=O)[O-])o2)cc1C`, the AC50 under setting [1] was 35.5 µM [falling, single point].
`O=C(C1CCCN(Cc2ccccc2[N+](=O)[O-])C1)N1CCCC1` (stereo not drawn): the AC50 under setting [1] was 15.8 µM [rising, single point].
For `CCN=C1S/C(=C\c2sccc2C)C(=O)N1CC`, the AC50 reads like this: under setting [1], 1.46 µM [rising, partial curve]; under setting [2], 16.4 µM [falling, partial curve, poor fit].
Take `CCc1c(C#N)c(SCCC(=O)Nc2cccc(OC)c2)nc2c1C(=O)CC(C)(C)C2`: the AC50 under setting [1] is 14.6 µM [falling, single point].
Take `COCc1ccc(-c2c(-c3cccc(OC)c3)sc3ccc(OC)cc23)cc1`: the AC50 under setting [1] was 7.31 µM [rising, partial curve, poor fit].
The same measure, in the same setting: under `CC(=O)Cc1nsc(NC(=O)c2cccs2)n1` stands 14.1 µM [falling, single point]; under `CCCNC(=O)c1nn2cc(Br)cnc2c1Br`, 10 µM [rising, partial curve].
For the molecule `O=C(NNC(=O)c1cc(Cl)ccc1O)c1cccs1`, the AC50 under setting [1] was 0.447 µM [falling, full curve].

The values above are taken from PubChem BioAssay AID493014 (National Center for Advancing Translational Sciences (NCATS), 2011).
